Data as given in PubChem BioAssay AID1224830 (NIAID, 2016)

Aim: 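Regulators of TLR4 signalling towards TNF-alpha in macrophage-like cells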 (primary screen)
Cells: human THP-1 monocytic leukaemia cells, TNF dual-luciferase reporter clone, PMA-differentiated to macrophage-like cells
Reagent: siRNA pool against human genes, 50 nM
Duration: LPS for 4 h, given about 3 days after siRNA transfection
Conditions: bacterial LPS (TLR4 ligand), 10 ng/ml
Measured: 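Ratio of firefly to renilla light, scaled to the plate median and expressed as a robust z-score per replicate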
Scale: TNF reporter robust z-score: higher = stronger TNF reporter response to LPS
Hit rule: 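a well is active when its z-score exceeds 2.8 or falls below -1.5; control wells carry no call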
The deposit covers about 18,000 reagents; this is a part drawn at random. In the full data, about 2,900 (16%) were called active. 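Calls are made per well; low scores hint the gene aids the LPS response, high scores that it dampens it.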 Repeated entries: four replicate wells of each siRNA pool.

gene symbol | TNF reporter robust z-score | Call
DPP4 (GeneID 1803) | -0.66 | inactive
DPP4 (GeneID 1803) | -0.2 | inactive
DPP4 (GeneID 1803) | -0.16 | inactive
DPP4 (GeneID 1803) | -0.35 | inactive
SLC9A7 (GeneID 84679) | 0.05 | inactive
SLC9A7 (GeneID 84679) | 0.55 | inactive
SLC9A7 (GeneID 84679) | 0.41 | inactive
SLC9A7 (GeneID 84679) | 0.42 | inactive
RAB4B (GeneID 53916) | -0.71 | inactive
RAB4B (GeneID 53916) | -0.87 | inactive
RAB4B (GeneID 53916) | -0.8 | inactive
RAB4B (GeneID 53916) | -0.89 | inactive
SCT (GeneID 6343) | -1.17 | inactive
SCT (GeneID 6343) | -1.18 | inactive
SCT (GeneID 6343) | -0.91 | inactive
SCT (GeneID 6343) | -0.85 | inactive
FRMD3 (GeneID 257019) | 0.78 | inactive
FRMD3 (GeneID 257019) | 1.09 | inactive
FRMD3 (GeneID 257019) | 1.78 | inactive
FRMD3 (GeneID 257019) | 1.83 | inactive
MX1 (GeneID 4599) | 0.7 | inactive
MX1 (GeneID 4599) | -0.87 | inactive
MX1 (GeneID 4599) | 1.9 | inactive
MX1 (GeneID 4599) | 1.65 | inactive
AKNA (GeneID 80709) | -0.3 | inactive
AKNA (GeneID 80709) | -0.04 | inactive
AKNA (GeneID 80709) | 0.26 | inactive
AKNA (GeneID 80709) | -0.24 | inactive
DEFB127 (GeneID 140850) | 0.36 | inactive
DEFB127 (GeneID 140850) | 0.46 | inactive
DEFB127 (GeneID 140850) | 0.31 | inactive
DEFB127 (GeneID 140850) | 0.43 | inactive
CCNO (GeneID 10309) | 0.67 | inactive
CCNO (GeneID 10309) | 0.97 | inactive
CCNO (GeneID 10309) | 0.89 | inactive
LYN (GeneID 4067) | -0.58 | inactive
LYN (GeneID 4067) | -0.42 | inactive
LYN (GeneID 4067) | 0.68 | inactive
LYN (GeneID 4067) | 0.96 | inactive
SLC30A7 (GeneID 148867) | -0.26 | inactive
SLC30A7 (GeneID 148867) | -0.6 | inactive
SLC30A7 (GeneID 148867) | -1.44 | inactive
SLC30A7 (GeneID 148867) | 0.25 | inactive
ABHD5 (GeneID 51099) | -0.76 | inactive
ABHD5 (GeneID 51099) | -0.32 | inactive
ABHD5 (GeneID 51099) | 0.39 | inactive
ABHD5 (GeneID 51099) | 0.97 | inactive
KRTAP1-1 (GeneID 81851) | -0.32 | inactive
KRTAP1-1 (GeneID 81851) | 0.69 | inactive
KRTAP1-1 (GeneID 81851) | -0.05 | inactive
KRTAP1-1 (GeneID 81851) | 1.14 | inactive
TTR (GeneID 7276) | -1.05 | inactive
TTR (GeneID 7276) | -1.23 | inactive
TTR (GeneID 7276) | -1.32 | inactive
TTR (GeneID 7276) | -0.75 | inactive
FGF23 (GeneID 8074) | -0.79 | inactive
FGF23 (GeneID 8074) | 0.34 | inactive
FGF23 (GeneID 8074) | -0.98 | inactive
FGF23 (GeneID 8074) | 0.11 | inactive
SYN3 (GeneID 8224) | 1.23 | inactive
SYN3 (GeneID 8224) | 2.12 | inactive
SYN3 (GeneID 8224) | -0.77 | inactive
SYN3 (GeneID 8224) | -0.72 | inactive
NHLRC3 (GeneID 387921) | 5.34 | active
NHLRC3 (GeneID 387921) | 1.04 | inactive
NHLRC3 (GeneID 387921) | 0.17 | inactive
NHLRC3 (GeneID 387921) | -0.57 | inactive
USO1 (GeneID 8615) | 0 | inactive
USO1 (GeneID 8615) | -0.53 | inactive
USO1 (GeneID 8615) | -0.91 | inactive
USO1 (GeneID 8615) | -0.46 | inactive
SNRNP35 (GeneID 11066) | 2.55 | inactive
SNRNP35 (GeneID 11066) | 1.04 | inactive
SNRNP35 (GeneID 11066) | 2.29 | inactive
SNRNP35 (GeneID 11066) | 1.51 | inactive

No new results follow: an excerpt of the list.
gene symbol | TNF reporter robust z-score | Call
TTR (GeneID 7276) | -1.05 | inactive
TTR (GeneID 7276) | -1.23 | inactive
TTR (GeneID 7276) | -1.32 | inactive
TTR (GeneID 7276) | -0.75 | inactive
FGF23 (GeneID 8074) | -0.79 | inactive
FGF23 (GeneID 8074) | 0.34 | inactive
FGF23 (GeneID 8074) | -0.98 | inactive
